# Measured values from PubChem BioAssay AID2685 (National Center for Advancing Translational Sciences (NCATS), 2010).
# Screen size: about 320,000 compounds; about 2,100 (0.66%) were called active. The shares of active, inactive and inconclusive entries below differ from those in the screen. Calls come from the whole dose curve; as a rule, active = well fitted inhibition curve with a large enough effect in the signal ratio, with a control signal flat (not every such curve was filed as active); inconclusive = small, poorly fitted or top-dose-only effect, or effect the other way, or a change in a side signal; inactive = flat fitted curve, though single readings scatter; the % refers to the signal ratio. Potencies of inconclusive entries are doubtful fits and often do not repeat.
# Experiment: qHTS Assay for Lipid Storage Modulators in Drosophila S3 Cells
# Settings: BODIPY lipid droplet fluorescence, 18-24 h, cells fed with added oleic acid; lipid storage change, negative = inhibition: at 46.1 µM (top of the series) unless noted
# Summary of the method: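 Drosophila S3 cells got compounds at several concentrations plus oleic acid (400 uM solution). Laser-scanning cytometry with 488 nm excitation read lipid droplets at 500-530 nm and cells at 575-640 nm. Percent activity was relative to 20 uM Triacsin C.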
# % is set by controls: 0 for no effect and ±100 for the full control effect; potency is the fitted concentration of half-maximal effect.
Structure (SMILES),Potency,"lipid storage change, negative = inhibition"
N#Cc1c(OCC(=O)c2ccccc2)nc2c(c1-c1ccco1)CCc1ccccc1-2,active: 8.2 µM,
CC(=O)N/C(=C\c1ccccc1)C(=O)OCc1ccc(F)cc1,"inconclusive: 0.58 µM [activator, single point]",
Cn1c(=O)[nH]c(=O)c2c1nc(N1CCCC1)n2CCSc1nc2ccccc2[nH]1,,inconclusive: 20.9%
CC(Oc1ccccc1)C(=O)N1CCN=C1SCc1ccccc1 (centres undefined),,inconclusive: 6.45%
Cc1c(NC(=O)CSc2ccccn2)c(=O)n(-c2ccccc2)n1C,,inconclusive: -35%
COCCSc1nnc(NC(=O)Cc2ccc(OC)c(OC)c2)s1,,inconclusive: -0.215%
O=C(NC1(Cc2ccccc2)CCN(Cc2ccc(-c3ccccc3)cc2)C1=O)c1ccccc1 (centres undefined),"inconclusive: 0.103 µM [falling, single point]",
O=C(Nc1ccc(F)cc1F)c1cc2n(n1)C(C(F)(F)F)C1CCCCC1N2 (centres undefined),,inconclusive: -3.28%
CCCOC(=O)C1C2C=CC3(CN(c4ccc(Cl)c(F)c4)C(=O)C13)O2 (centres undefined),"inconclusive: 6.51 µM [rising, partial curve]",
O=C(CCCc1c[nH]c2ccccc12)NCc1ccccc1F,"inconclusive: 29.1 µM [falling, single point]",
COc1ccc(C2=NS(=O)(=O)N(C)C(C(=O)NCc3ccccn3)=C2)cc1OC,"inconclusive: 1.03 µM [activator, full curve, poor fit]",
Cc1ccc(NC(=O)CCl)cc1S(=O)(=O)N1CCCCCC1,"inconclusive: 3.66 µM [falling, single point]",
COc1ccccc1C(=O)Nc1nnc(SCC(=O)NCc2ccco2)s1,active: 20.6 µM,
CC(=O)Nc1ncc(Cc2cccc(Cl)c2)s1,"inconclusive: 20.6 µM [activator, single point]",
CN(C)S(=O)(=O)c1ccc(NC(=O)CSc2nc3ccccc3n2-c2ccccc2)cc1,,inconclusive: -46%
CNC(=O)N(O)C1N(C)C(=O)N(Cc2ccccc2)C1(C)C (centres undefined),,inconclusive: -24.8%
COC(=O)c1ccc(C(=O)OC)c(NC(=S)N2CCN(c3cccc(Cl)c3)CC2)c1,,inconclusive: 16.2%
COc1ccc2oc(C)c(NC(C)=O)c2c1,,inconclusive: 6.95%
Cc1cc(N2CCCC2=O)ccc1S(=O)(=O)Nc1c(C)nn(C)c1C,,inconclusive: 7.25%
Cc1ccccc1C(=NCCCN(C)C)c1ccccc1C,,inconclusive: -10.2%
COc1ccc(Cl)cc1-c1nc(SCC(=O)NC2CC2)n[nH]1,,inconclusive: 15.4%
c1ccc(-n2ncc3c(N4CCN(c5ccccn5)CC4)nc(N4CCOCC4)nc32)cc1,,inconclusive: 18.1%
CN(C(=O)CSc1ncnc2sc(-c3ccccc3)cc12)C1CCS(=O)(=O)C1 (centres undefined),,inconclusive: 12.5%
CCOC(=O)N1CCC(Nc2cccc(SC)c2)CC1,,inconclusive: -7.34%
CN1CCC2(CC1)Nc1nc(SCc3ccc(Cl)cc3)nn1C1=C2CN(C)CC1,,inconclusive: 10.9%

# 4 consecutive records out of the list so far:
Structure (SMILES),Potency,"lipid storage change, negative = inhibition"
c1ccc(-n2ncc3c(N4CCN(c5ccccn5)CC4)nc(N4CCOCC4)nc32)cc1,,inconclusive: 18.1%
CN(C(=O)CSc1ncnc2sc(-c3ccccc3)cc12)C1CCS(=O)(=O)C1 (centres undefined),,inconclusive: 12.5%
CCOC(=O)N1CCC(Nc2cccc(SC)c2)CC1,,inconclusive: -7.34%
CN1CCC2(CC1)Nc1nc(SCc3ccc(Cl)cc3)nn1C1=C2CN(C)CC1,,inconclusive: 10.9%

# Going on with the list:

Structure (SMILES),Potency,"lipid storage change, negative = inhibition"
CCN(CC(=O)Nc1c(F)cccc1F)C(=O)C1COc2ccccc2O1 (centres undefined),,inconclusive: 1.64%
O=C(CSC1=NC2(CCCCCC2)N=C1c1ccccc1)Nc1ccc2c(c1)OCCO2,,inconclusive: -15.3%
O=C(O)CC/C(=N\Nc1ccc([N+](=O)[O-])cc1S(=O)(=O)N1CCOCC1)c1cccs1,"inconclusive: 29.1 µM [falling, single point]",
O=C(Nc1ccccc1)c1ccc(-c2ccccc2C(F)(F)F)o1,"inconclusive: 8.2 µM [rising, partial curve]",
CCN(CC)Cc1c(O)ccc2c(-c3ccccc3)cc(=O)oc12,,inconclusive: -54.8%
CC1(/[N+]([O-])=C/c2ccccc2F)CCCCC1=O (centres undefined),,inconclusive: -7.54%
COc1ccc2nc(SC(C)C(=O)NCC(=O)Nc3ccc(F)c(F)c3F)[nH]c2c1 (centres undefined),,inconclusive
Cc1ccc(S(=O)(=O)N2CCCN(C(=O)CNC(=O)c3cccc(C)c3)CC2)cc1,,inconclusive: 14.2%
Cc1ccc(CN2CCC(c3cc(-c4ccc(Cl)cc4)n[nH]3)CC2)cc1,"inconclusive: 20.6 µM [falling, single point]",
O=C(NNC(=O)c1cc(-c2ccccc2)nc2ccccc12)c1csc(N2CCOCC2)n1,,inconclusive: 32.7%
c1ccc2c(c1)OCC(CNc1ncnc3nc[nH]c13)O2 (centres undefined),"inconclusive: 25.9 µM [falling, single point]",
Oc1c(Cl)cc(Cl)cc1CNc1nccs1,,inconclusive: 84.1%
CCOC(=O)CSc1nc2ccc(C)cc2cc1C#N,"inconclusive: 2.31 µM [rising, partial curve]",
O=C(O)CN(c1cccc(C(F)(F)F)c1)S(=O)(=O)c1ccccc1,,inconclusive: 15.9%
COc1ccc(S(=O)(=O)N2CCCC(C(=O)N3CCOCC3)C2)cc1Cl (centres undefined),,inconclusive: 19.8%
COc1ccc(C(=O)NNC(=S)NC(=O)c2ccc(Br)o2)cc1OC,,inconclusive: -12.8%
O=C(CS(=O)(=O)c1c[nH]c2ccccc12)Nc1ccc(F)cc1,,inactive
N#CC(C#N)=C/C=C(\Nc1ccc(Cl)cc1)c1ccc(Cl)cc1,,inconclusive: -1.47%
COc1cc(C(c2c(C(=O)O)[nH]c3ccccc23)c2c(C(=O)O)[nH]c3ccccc23)ccc1OCc1ccccc1,,inconclusive: -14.4%
Cc1cccc(OCC(=O)Nc2ccc3oc(=O)ccc3c2)c1,"inconclusive: 18.4 µM [falling, single point]",
COc1cccc(N2CCN(C(=O)c3ccc(-c4ccccc4)cc3)CC2)c1,,inconclusive: 23.1%
O=C(CCc1cn2ccccc2n1)NC1CCCc2c1cnn2-c1ccccc1F (centres undefined),,inconclusive: -8.29%
O=C(Nc1cc(Cl)ccc1-n1cncn1)c1cccc(S(=O)(=O)N2CCOCC2)c1,"inconclusive: 6.51 µM [activator, single point]",
COc1ccc(OC)c(NC(=O)Cc2coc3ccc4ccccc4c23)c1,"inconclusive: 5.8 µM [activator, single point]",
